Measured data: PubChem BioAssay AID743454 (Peter MacCallum Cancer Centre, 2014)

Purpose: 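Knock-downs lowering viability or raising caspase 3/7 activity in vorinostat-treated resistant cells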 (primary screen)
Cell system: human HCT116-VR colon cancer cells, selected for vorinostat resistance
Knock-down reagent: siRNA pool against human genes, 40 nM siRNA pool
Duration: vorinostat for 24 h, read-out about 72 h after transfection
Challenge: vorinostat at 2.5 µM final
Measured: 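Cell viability by CellTiter-Fluor and caspase 3/7 activity by luminescence, each scaled to mock wells per plate, duplicates averaged, then robust z-scored over all plates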
Reading the numbers: viability robust z-score: higher = more viable cells than screen typical; caspase robust z-score: higher = more caspase 3/7 activity than screen typical
Active means: 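Hits are knock-downs in viability class RV1/RV2 or caspase class CA1/CA2, excluding ones that killed cells in the no-drug cell-count arm; hits then retested with single siRNAs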
In all, the deposit lists about 18,000 reagents; this is an unselected part. 450 of them (2.5%) count as active. 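Single biological run; no consistent viability z cut-off exists, so the class columns, not z-scores, define the calls.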 Reagents against one gene are numbered here.

ACTR3B
- viability hit class: no change
- caspase hit class: no change
- viability robust z-score: 0.44
- caspase robust z-score: -0.04
- activity call: inactive

RPTOR
- viability hit class: no change
- caspase hit class: no change
- viability robust z-score: -0.18
- caspase robust z-score: -0.54
- activity call: inactive

ZNF580
- viability hit class: no change
- caspase hit class: no change
- viability robust z-score: -0.7
- caspase robust z-score: 0.11
- activity call: inactive

ARFGEF1
- viability hit class: no change
- caspase hit class: no change
- viability robust z-score: 0.34
- caspase robust z-score: -0.57
- activity call: inactive

GABRB1
- viability hit class: no change
- caspase hit class: no change
- viability robust z-score: -0.67
- caspase robust z-score: -0.5
- activity call: inactive

EIF2S2
- viability hit class: no change
- caspase hit class: no change
- viability robust z-score: -4.27
- caspase robust z-score: -0.6
- activity call: inactive

CT47A10
- viability hit class: no change
- caspase hit class: no change
- viability robust z-score: 0.82
- caspase robust z-score: 2.96
- activity call: inactive

WIPF1
- viability hit class: no change
- caspase hit class: no change
- viability robust z-score: -1.15
- caspase robust z-score: -0.78
- activity call: inactive

FAXDC2
- viability hit class: no change
- caspase hit class: no change
- viability robust z-score: 0.45
- caspase robust z-score: -0.22
- activity call: inactive

CD101
- viability hit class: no change
- caspase hit class: no change
- viability robust z-score: 1.74
- caspase robust z-score: 3.75
- activity call: inactive

PCBD1
- viability hit class: no change
- caspase hit class: no change
- viability robust z-score: -0.71
- caspase robust z-score: 1.25
- activity call: inactive

PRDX3
- viability hit class: no change
- caspase hit class: no change
- viability robust z-score: -0.73
- caspase robust z-score: -1.03
- activity call: inactive

SLC1A1
- viability hit class: no change
- caspase hit class: no change
- viability robust z-score: 0.37
- caspase robust z-score: -0.85
- activity call: inactive

B2M
- viability hit class: no change
- caspase hit class: no change
- viability robust z-score: 0.9
- caspase robust z-score: -0.47
- activity call: inactive

SLC22A17
- viability hit class: no change
- caspase hit class: no change
- viability robust z-score: 0.3
- caspase robust z-score: -0.05
- activity call: inactive

LOC155060
- viability hit class: no change
- caspase hit class: no change
- viability robust z-score: 1.38
- caspase robust z-score: 0.68
- activity call: inactive

CD1B
- viability hit class: RV2 (reduced viability)
- caspase hit class: no change
- viability robust z-score: -2.94
- caspase robust z-score: -0.56
- activity call: active

LRRC28
- viability hit class: no change
- caspase hit class: no change
- viability robust z-score: -0.14
- caspase robust z-score: 0.56
- activity call: inactive

TNFRSF6B
- viability hit class: no change
- caspase hit class: no change
- viability robust z-score: -1.62
- caspase robust z-score: 0.34
- activity call: inactive

SPANXB1 #1
- viability hit class: no change
- caspase hit class: no change
- viability robust z-score: 0.42
- caspase robust z-score: 1.99
- activity call: inactive

SPANXB1 #2
- viability hit class: no change
- caspase hit class: no change
- viability robust z-score: -1.66
- caspase robust z-score: -0.6
- activity call: inactive

Targets listed so far whose target name begins with C or c:
CT47A10
- viability hit class: no change
- caspase hit class: no change
- viability robust z-score: 0.82
- caspase robust z-score: 2.96
- activity call: inactive

CD101
- viability hit class: no change
- caspase hit class: no change
- viability robust z-score: 1.74
- caspase robust z-score: 3.75
- activity call: inactive

CD1B
- viability hit class: RV2 (reduced viability)
- caspase hit class: no change
- viability robust z-score: -2.94
- caspase robust z-score: -0.56
- activity call: active
